Assay results as given in publication PMC5584982.
Results are given in words; binding and its absence hold for the method and conditions named. In cells and extracts the contact can be indirect. A result given as binding can be weak or reduced; the word gives no strength.

Chains of the proteins cited; added tags and fusions are not shown. Lines headed by an entry give the natural chain unless they say otherwise; changes in a name come on top.
UniProt Q389I9: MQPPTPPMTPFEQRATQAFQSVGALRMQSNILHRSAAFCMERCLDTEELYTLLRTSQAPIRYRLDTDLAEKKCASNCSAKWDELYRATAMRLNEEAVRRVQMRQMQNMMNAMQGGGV
UniProt Q585K7: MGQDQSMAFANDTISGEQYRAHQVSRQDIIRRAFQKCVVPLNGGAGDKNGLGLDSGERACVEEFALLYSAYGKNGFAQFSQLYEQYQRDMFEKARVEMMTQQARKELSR
UniProt Q57Z59: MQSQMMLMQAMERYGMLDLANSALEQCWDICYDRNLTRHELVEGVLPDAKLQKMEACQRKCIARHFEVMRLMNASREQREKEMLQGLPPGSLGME

Assays:
TbTim13-myc (T. brucei) [1] = molecular target: TbTim13-myc (T. brucei) (UniProt Q389I9); test: co-IP; digitonin-extracted crude mitochondrial fraction solubilized in 1% digitonin, 20 mM Tris-HCl pH 7.4, 0.1 mM EDTA, 100 mM NaCl, 10% glycerol; anti-c-myc or anti-HA resin, 2 h at 4°C; eluate analysed by western blot
TbTim12-myc (T. brucei) [2] = molecular target: TbTim12-myc (T. brucei) (UniProt Q585K7); test: as above
TbTim13-myc (T. brucei) [3] = molecular target: TbTim13-myc (T. brucei) (UniProt Q389I9); test: co-IP; soluble fraction with IMS proteins (supernatant after 0.2% digitonin treatment of crude mitochondria); anti-c-myc resin, 2 h at 4°C, 20 mM Tris-HCl pH 7.4, 100 mM NaCl; eluate analysed by western blot
TbTim12-myc (T. brucei) [4] = molecular target: TbTim12-myc (T. brucei) (UniProt Q585K7); test: as above
TbTim11-HA (T. brucei) = TbTim11-HA (T. brucei) (UniProt Q57Z59); test: co-IP; digitonin-extracted crude mitochondrial fraction solubilized in 1% digitonin, 20 mM Tris-HCl pH 7.4, 0.1 mM EDTA, 100 mM NaCl, 10% glycerol; anti-c-myc or anti-HA resin, 2 h at 4°C; eluate analysed by western blot

In the case of TbTim11-HA (from UniProt Q57Z59), the binding (TbTim13-myc (T. brucei) [1]) is reported as “binds”, the binding (TbTim12-myc (T. brucei) [2]) is reported as “binds” and the binding (TbTim13-myc (T. brucei) [3]) is reported as “binds”. The binding (TbTim12-myc (T. brucei) [4]) was “binds”.
TbTim12-myc (from UniProt Q585K7) was tested, and the binding (TbTim11-HA (T. brucei)) was “binds”.
“TbTim12 (endogenous) (from UniProt Q585K7)” was tested, and the binding (TbTim13-myc (T. brucei) [1]) was “binds” and the binding (TbTim13-myc (T. brucei) [3]) was “binds”.
